A short description of the test: qHTS Assay for Modulators of Lamin A Splicing. The conditions noted are these: HeLa LMNA splicing GFP/RFP minigene ratio, 48 h. An outline of the steps: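 S3 HeLa stable clones carrying a lamin A-EGFP splicing minigene plus DsRed2 were seeded at 600 cells/well in Opti-MEM with 2% FBS, pin-dosed and incubated 48 h at 37°C. Acumen cytometry (488 nm) gave the GFP/RFP total-intensity ratio.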
(Quantitative high-throughput screening tests each substance at several concentrations.)

[1] abbreviates: measured here: GFP splicing reporter channel.
Where [2] appears, read: measured here: RFP viability control channel.

Some of the results follow. The main result of the screen is listed elsewhere. These columns were measured beside it and carry no call. Most of these compounds were active or inconclusive in the main read-out, so they are no random draw. Words in brackets tell the shape of the fitted curve; partial curves, single points and poor fits give uncertain potencies.

On to `O=C(c1cccs1)N(Cc1cc2ccccc2[nH]c1=O)c1ccccc1`, for which the AC50 (as a rule, the concentration giving half of the maximal activity seen) by setting is: under setting [1], 11.2 µM [rising, single point]; under setting [2], 14.1 µM [rising, partial curve].

As for `CCOC(=O)c1c(NC(=O)C(=O)N/N=C/c2ccc(O)c(OC)c2)sc2c1CCCCC2`, the AC50 was 14.1 µM [rising, single point] under setting [1] and 22.4 µM [rising, single point] under setting [2].

In the case of `OCCCc1cn(-c2ccccc2)c2ccccc12`, the AC50 under setting [1] is 0.0224 µM [rising, full curve, poor fit].

Regarding `Cn1nccc1C(=O)NCc1ccc2c(c1)CCN2C(=O)c1ccc(Cl)cc1`, the AC50 runs as follows: under setting [1], 10 µM [falling, partial curve, poor fit]; under setting [2], 8.91 µM [falling, partial curve, poor fit].

Turning to `O=C1NC2(CCCCC2)C(=O)N1Cc1ccc([N+](=O)[O-])cc1`, under setting [2], the AC50 was 0.398 µM [rising, full curve, poor fit].

Regarding `CN1/C(=C\C(=O)c2cccnc2)C(C)(C)c2ccccc21`, under setting [2], the AC50 was 10 µM [rising, partial curve].

In the case of `CCN(CC)S(=O)(=O)c1ccc2oc(SCC(=O)NCc3ccccc3)nc2c1`, the AC50 under setting [2] is 35.5 µM [rising, single point].

For the compound `CC(C)(C)c1nc(SCC(=O)N2CCCC2)c2ccccc2n1`, the AC50 is 0.398 µM [rising, partial curve] under setting [1] and 1.12 µM [rising, partial curve] under setting [2].

Consider `O=S(=O)(Nc1nc2ccccc2s1)c1ccc(Cl)s1`, for which the half-maximal activity concentration (AC50) under setting [2] is 11.2 µM [rising, single point].

With `O=C(COc1ccc2ccccc2c1)Nc1cccc2cccnc12`, the AC50 by setting is: under setting [1], 20 µM [rising, partial curve, poor fit]; under setting [2], 15.8 µM [rising, single point].

With `COc1ccc(CNc2cc(-c3ccccc3C)ncn2)c(OC)c1`, the AC50 is 11.2 µM [falling, partial curve] under setting [1] and 11.2 µM [falling, partial curve, poor fit] under setting [2].

As to `COc1ccc(-c2nn(-c3ccccc3)cc2/C=N/N2C(=O)CSC2=S)cc1`, under setting [2], the concentration at half-maximal activity (AC50) was 35.5 µM [rising, single point].

As to `COC(=O)c1c(NC(=O)COC(=O)[C@@H](NS(=O)(=O)c2ccc(C)cc2)C(C)C)sc2c1CCC2`, the concentration at half-maximal activity (AC50) under setting [2] is 31.6 µM [rising, single point].

Regarding `Cc1ncc(CO)c(CN)c1O`, under setting [2], the AC50 is 0.447 µM [rising, single point].

Consider `CC(C)Oc1ccc(NC(=O)Oc2ccccc2)cc1`, for which the AC50 by setting is: under setting [1], 6.31 µM [rising, single point]; under setting [2], 5.62 µM [rising, single point].

Turning to `O=C(Cn1cc([N+](=O)[O-])cn1)NCc1ccc(-n2cccn2)cc1`, the AC50 under setting [2] is 5.62 µM [rising, single point].

Take `COc1ccc(-c2cn(/N=C/c3ccc(Cl)cc3Cl)c(N)n2)cc1`: the AC50 under setting [2] was 17.8 µM [rising, single point].

For the compound `O=C(NC1CCCC1)C(c1ccc(N2CCOCC2)cc1)N(Cc1ccco1)C(=O)c1ccco1` (stereo not drawn), the AC50 under setting [2] is 6.31 µM [rising, single point].

Regarding `CCCCCCCCCCCCCCCCCCNC(=O)OCC(COP(=O)([O-])OCC[n+]1ccsc1)OC` (stereo not drawn), the AC50 is, setting by setting: under setting [1], 5.01 µM [falling, full curve, poor fit]; under setting [2], 20 µM [falling, partial curve, poor fit].

Turning to `CN(C)CCCN=Cc1c(-c2ccccc2)[nH]n(-c2nc3ccccc3s2)c1=O`, the AC50 runs as follows: under setting [1], 0.0891 µM [falling, full curve]; under setting [2], 0.1 µM [falling, full curve, poor fit].

Consider `Cc1ccc2cc(CN(Cc3ccco3)S(=O)(=O)c3c(C)ccc4nsnc34)c(=O)[nH]c2c1`, for which the AC50 was 5.62 µM [rising, partial curve] under setting [1] and 14.1 µM [rising, single point] under setting [2].

Consider `Cc1ccc(CNC(=O)CSc2nc3ccsc3c(=O)n2Cc2ccc(C(=O)O)cc2)cc1`, for which the AC50 under setting [2] is 0.282 µM [falling, partial curve, poor fit].

As to `CN(c1ccc(OCC(=O)OCC(=O)Nc2cccc([N+](=O)[O-])c2)cc1)S(=O)(=O)c1ccc(F)cc1`, the AC50 under setting [1] was 22.4 µM [rising, partial curve, poor fit].

As to `Cc1cccc2sc(NC(=O)C3c4ccccc4Oc4ccccc43)nc12`, the AC50 under setting [1] is 10 µM [falling, partial curve, poor fit].

For `Cc1ccc(Cl)cc1NC(=O)CN1C(=O)C(C)(C)c2cc(S(=O)(=O)N3CCCCC3)ccc21`, the AC50 by setting is: under setting [1], 0.0891 µM [falling, full curve, poor fit]; under setting [2], 0.794 µM [falling, full curve, poor fit].

With `Cc1ccc(Cn2c(=S)[nH]c3ccc(N4CCOCC4)cc3c2=O)o1`, the AC50 runs as follows: under setting [1], 22.4 µM [falling, single point]; under setting [2], 17.8 µM [falling, partial curve].

`COc1ccc(N2C(=S)N=C(Nc3cccc(C)c3)C23CCCCC3)cc1`: the AC50 under setting [1] is 3.98 µM [rising, single point] and the AC50 under setting [2] is 4.47 µM [rising, full curve, poor fit].

`C/C(=N\NC(=O)CSCc1ccc([N+](=O)[O-])cc1)c1ccccc1O`: the AC50 under setting [2] is 31.6 µM [rising, single point].

For `CCOC(=O)c1ccc(OC(=O)c2cn(-c3cccc(OC)c3)c(=O)c3ccccc23)cc1`, the AC50 under setting [1] is 4.47 µM [rising, full curve, poor fit].

`O=C(O)c1ccc(NC2=C/C(=N/S(=O)(=O)c3ccccc3)c3ccccc3C2=O)cc1`: the AC50 by setting is: under setting [1], 14.1 µM [falling, single point]; under setting [2], 11.2 µM [falling, partial curve, poor fit].

Regarding `CCOc1ccc(N2CC(C(=O)NCc3nnnn3-c3ccc(C)c(C)c3)CC2=O)cc1` (stereo not drawn), the AC50 under setting [1] is 0.398 µM [rising, partial curve, poor fit].

For the compound `CC(=O)c1ccc(N2CCN(C(=O)CCS(=O)(=O)c3ccc4c(c3)oc(=O)n4C)CC2)cc1`, the AC50 is 25.1 µM [falling, single point] under setting [1] and 17.8 µM [falling, single point] under setting [2].

For the compound `COc1ccc2c(c1)CCc1c(C(=O)N3CCc4ccccc4C3)noc1-2`, under setting [2], the AC50 is 20 µM [rising, single point].

The record behind these values is PubChem BioAssay AID1487 (National Center for Advancing Translational Sciences (NCATS), 2009).
